# Reference: the supplement of paper PMC7125110
# ± gives the standard error. The uncertainty is large for many entries.
# B1: glmS ribozyme (parent)
# chain: AUAAAAGCGCCAGAACUACAGAAAUGUAGUUGACGAGGAGGAGGUUUAUCGAAUUUUCGGCGGAUGCCUCCAAA
# Variants of: B1
# Assay: kcat; higher = faster cleavage; RNA array
# Conditions: with glucosamine-6-phosphate
# In short: (§1)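 A hybridised Cy3 probe tracked barcoded ribozyme variants, transcribed in situ by E. coli RNA polymerase on sequenced MiSeq chips, at 37 °C. The variants received 40 μM to 10 mM glucosamine-6-phosphate in HEPES/KCl/Mg(OAc)2 buffer. kobs came from decay fits and kcat and KM from weighted Michaelis–Menten fits.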
row,Variant,kcat
1,U55G G59U,0.000139 ± 0.0001 s⁻¹
2,G37C U65A,< 1e-05 s⁻¹
3,C34U U69G,0.00031 ± 0.00016 s⁻¹
4,U65A U69C,0.000883 ± 0.00052 s⁻¹
5,C16G G38U G63A C68G,3.16e-05 ± 1.9e-05 s⁻¹
6,U45G U56C,0.0017 ± 0.0014 s⁻¹
7,G29U C70U,0.000631 ± 0.00032 s⁻¹
8,G32U A42C,1.43e-05 ± 1.3e-05 s⁻¹
9,A64U G66U,< 1e-05 s⁻¹
10,U47C U49G,0.000198 ± 1.4e-05 s⁻¹
11,A53C C70A,5.94e-05 ± 1.5e-05 s⁻¹
12,A53C C70U,0.00487 ± 0.0012 s⁻¹
13,A39U A42G C67U,0.00435 ± 0.0028 s⁻¹
14,A42G C67G,0.0139 ± 0.0077 s⁻¹
15,G59U U69G,2.94e-05 ± 8.4e-06 s⁻¹
16,U55C C68G,< 1e-05 s⁻¹
17,U45A C70U,0.00288 ± 0.0015 s⁻¹
18,G32A U56G,0.00182 ± 0.0014 s⁻¹
19,G44U U65A,0.000116 ± 9.7e-05 s⁻¹

# Variants of: B1
# Assay: self-cleavage kobs at 2500 uM GlcN6P; higher = faster cleavage; RNA array
# Conditions: with glucosamine-6-phosphate
# In short: as §1
row,Variant,self-cleavage kobs at 2500 uM GlcN6P
1,U55G G59U,1.35e-05 ± 1.2e-05 s⁻¹
2,U31C C50G U56C C58U,4.8e-05 ± 3.3e-05 s⁻¹
3,A12U G40A C71U,0.0456 ± 0.024 s⁻¹
4,C16G G38U G63A C68G,0.000857 ± 0.00071 s⁻¹
5,A12G A48G,1.92e-05 ± 1.3e-05 s⁻¹
6,G29U G41C,1.38e-05 ± 1.1e-05 s⁻¹
7,U46G U65C,2.54e-05 ± 1.5e-05 s⁻¹
8,G59U U69G,3.38e-05 ± 2.2e-05 s⁻¹
9,U46A A64C,3.16e-05 ± 2e-05 s⁻¹
10,G44U U65A,1.71e-05 ± 1.3e-05 s⁻¹

# Variants of: B1
# Assay: KM; higher = weaker cofactor use; RNA array
# Conditions: with glucosamine-6-phosphate
# In short: as §1
row,Variant,KM
1,G37C U65A,13300 ± 13000 µM
2,U31C G40C,943 ± 550 µM
3,U31C U55C,3750 ± 300 µM
4,A6G U31C,1400 ± 990 µM
5,A14U U56G,634 ± 390 µM
6,G9A U54C,63700 ± 17000 µM
7,A52U G66U,726 ± 420 µM
8,U46A C71A,2930 ± 2200 µM
9,G40A G66U,2050 ± 330 µM
10,C34U A42U,70.4 ± 29 µM
11,A15C C70G,115 ± 73 µM
12,A12U G40A C71U,2130 ± 1200 µM
13,U47A U55C,1940 ± 1100 µM
14,A12U G44U,1290 ± 350 µM
15,C50G G62U U69G,49.5 ± 48 µM
16,A14G G37C,2180 ± 2200 µM
17,A12G A48G,704 ± 640 µM
18,G7U A53C C58A U69G C70U,374 ± 200 µM
19,U47A C67U,1910 ± 1000 µM
20,C16A G40A,1490 ± 1500 µM
21,A52U C71A,1190 ± 670 µM
22,G29U G41C,5390 ± 3700 µM
23,U47C U49G,1240 ± 220 µM
24,A39G A52U,13000 ± 3500 µM

# 5 entries from above, set out differently.
row | Variant | KM
3 | U31C U55C | 3750 ± 300 µM
9 | G40A G66U | 2050 ± 330 µM
12 | A12U G40A C71U | 2130 ± 1200 µM
13 | U47A U55C | 1940 ± 1100 µM
14 | A12U G44U | 1290 ± 350 µM

# The list continues.

row,Variant,KM
1,A12C C50A U56A,1570 ± 1300 µM
2,A14C U65G C70U,4250 ± 2200 µM
3,U57A C68U,2500 ± 560 µM
4,U47A C71U,285 ± 160 µM
5,A14G G66C,1410 ± 110 µM
6,G13A A39G C61G C70A,24.6 ± 16 µM
7,U30C G40C,933 ± 520 µM
8,A64G G66A,936 ± 460 µM
9,A53C C70U,2220 ± 670 µM
10,C16G G29U U54A,5160 ± 3100 µM
11,G66A C67G,2030 ± 1300 µM
12,A39U A42G C67U,946 ± 870 µM
13,A42G C67G,2220 ± 1800 µM
14,U49G C68U,862 ± 360 µM
15,C10G A39G,380 ± 230 µM
16,U30G A42U C67G,717 ± 410 µM
17,U46G U65C,1730 ± 260 µM
18,U46A A64C,788 ± 440 µM
19,A14G A39C,3470 ± 520 µM
20,G29C U47A,3370 ± 2000 µM
21,G29U U49G,5270 ± 1900 µM
22,C34A C67G,10900 ± 9500 µM
23,U47C U57A,39500 ± 11000 µM

# Variants of: B1
# Assay: self-cleavage kobs at 40 uM GlcN6P; higher = faster cleavage; RNA array
# Conditions: with glucosamine-6-phosphate
# In short: as §1
row,Variant,self-cleavage kobs at 40 uM GlcN6P
1,U31C C50G U56C C58U,4.09e-05 ± 2.3e-05 s⁻¹
2,A33G G35A U54G U69A,5.74e-05 ± 2.9e-05 s⁻¹
3,A33G C50G,0.000532 ± 0.00027 s⁻¹
4,A12U G32A,2.6e-05 ± 1.9e-05 s⁻¹
5,C16G G38U G63A C68G,3.32e-05 ± 2.8e-05 s⁻¹
6,U45G U56C,1.97e-05 ± 1.6e-05 s⁻¹
7,A14G U49A U54G G62U C68A,3e-05 ± 2.7e-05 s⁻¹
8,C34U U49C C50G C61U C68G C71G,0.000628 ± 0.00033 s⁻¹
9,A14C G40U,3.03e-05 ± 1.9e-05 s⁻¹
10,A15C G29A,1.56e-05 ± 1e-05 s⁻¹
11,U30A A52G,2.23e-05 ± 1.6e-05 s⁻¹
12,U30C G35C C50A C68A,3.72e-05 ± 3e-05 s⁻¹

# Copied from the list:
# U30A A52G – self-cleavage kobs at 40 uM GlcN6P: 2.23e-05 ± 1.6e-05 s⁻¹
# A14C G40U – self-cleavage kobs at 40 uM GlcN6P: 3.03e-05 ± 1.9e-05 s⁻¹

# Variants of: B1
# Assay: self-cleavage kobs at 10000 uM GlcN6P; higher = faster cleavage; RNA array
# Conditions: with glucosamine-6-phosphate
# In short: as §1
row,Variant,self-cleavage kobs at 10000 uM GlcN6P
1,A33G G35A U54G U69A,3.19e-05 ± 1.9e-05 s⁻¹
2,A33G C50G,0.000873 ± 0.00052 s⁻¹
3,A12G A48G,1.82e-05 ± 1.2e-05 s⁻¹
4,U46A A64C,3.67e-05 ± 2.5e-05 s⁻¹

# Variants of: B1
# Assay: self-cleavage kobs at 160 uM GlcN6P; higher = faster cleavage; RNA array
# Conditions: with glucosamine-6-phosphate
# In short: as §1
row,Variant,self-cleavage kobs at 160 uM GlcN6P
1,A12U G40A C71U,0.00441 ± 0.0024 s⁻¹
2,U57A C68U,1.53e-05 ± 1.3e-05 s⁻¹
3,A14C G40U,2.07e-05 ± 1.4e-05 s⁻¹
4,G59U U69G,2.61e-05 ± 2.1e-05 s⁻¹
5,A15C G29A,3.49e-05 ± 2e-05 s⁻¹

# Variants of: B1
# Assay: self-cleavage kobs at 640 uM GlcN6P; higher = faster cleavage; RNA array
# Conditions: with glucosamine-6-phosphate
# In short: as §1
row,Variant,self-cleavage kobs at 640 uM GlcN6P
1,C16G G38U G63A C68G,4.71e-05 ± 3.3e-05 s⁻¹
2,G7U A53C C58A U69G C70U,0.000369 ± 0.00025 s⁻¹
3,U30C G40C,2.12e-05 ± 1.7e-05 s⁻¹
4,G44U U65A,2.26e-05 ± 2e-05 s⁻¹
